# According to PubChem BioAssay AID1487 (National Center for Advancing Translational Sciences (NCATS), 2009):
# Out of some 200,000 compounds screened, about 25 (0.01%) were called active. This list was built around the results that the source calls inconclusive (neither active nor inactive); the mix of calls is not that of the screen. The call rests on the fitted dose curve; in most records, active means well fitted inhibition curve with a large enough effect in the signal ratio, with a control signal flat (not every such curve was filed as active); inconclusive means small, poorly fitted or top-dose-only effect, or effect the other way, or a change in a side signal; inactive means flat fitted curve, though single readings scatter; the % refers to the signal ratio. A potency beside an inconclusive call is a rough fit, not a confirmed value.
# Assay: qHTS Assay for Modulators of Lamin A Splicing
# Settings: HeLa LMNA splicing GFP/RFP minigene ratio, 48 h; ratio change, negative = inhibition: at 46.1 µM (top of the series) unless noted
# Procedure, shortened: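 S3 HeLa cells stably expressing lamin A-EGFP splicing minigene plus DsRed2, 600 cells/well, 48 h compound exposure at 37C. Laser-scanning cytometry; analysed as GFP (500-530 nm)/RFP (575-640 nm) total intensity ratio; 0.5% DMSO vehicle.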
# On the % scale 0 is the no-effect control and ±100 the full control effect; potency means the concentration at half of the fitted maximal effect.
SMILES,"ratio change, negative = inhibition",Potency
CCOc1ccc(NC(=O)CN(C)CC(=O)NC(C)c2ccccc2)cc1OCC (stereo unspecified),inconclusive: 15.8% [at 46 µM],
CCC(=O)Nc1cccc(NC(=S)NC(=O)c2ccc(Cl)cc2Cl)c1,,"inconclusive: 35.5 µM [falling, single point]"
COc1ccc(CCNc2ncnc3c2c(-c2ccccc2)cn3-c2ccc(Cl)cc2)cc1OC,inconclusive: -28.1% [at 46 µM],
COC(=O)c1ccc(NC(=O)C2CCN(c3ncnc4c3nc3n4CCCCC3)CC2)cc1,inconclusive: -19.3% [at 46 µM],
COc1cc(CN(C(=O)c2ccc(OC(C)C)cc2)c2ccccn2)cc(OC)c1OC,inconclusive: -30.9% [at 46 µM],
CC(=O)c1cccc(NC(=O)[C@@H](NC(N)=O)C(C)C)c1,inconclusive: 0.659% [at 46 µM],
Cc1ccc(C(=O)Nc2nnc(-c3ccc(C(C)(C)C)cc3)s2)cc1,inactive,
Cc1cc(C)cc(NC(=O)CSc2c(C(C)C)cnc3c2c(=O)n(C)c(=O)n3C)c1,inconclusive: -0.102% [at 46 µM],
N#Cc1nc(Cc2ccccc2)oc1N1CCN(c2ccccc2)CC1,inconclusive: -12.5%,
CC(Sc1nc2cc(Cl)ccc2s1)C(=O)Nc1cccc(S(=O)(=O)N2CCOCC2)c1 (stereo unspecified),inconclusive: -45%,
CC(C)C(=O)NCCc1nc2ccccc2n1CCc1ccccc1,inconclusive: -15.1% [at 46 µM],
O=C(NCc1ccccc1)c1cc[n+](Cc2ccccc2)cc1,inactive,
CCOC(=O)c1noc2ncn(CC(=O)Nc3ccc(F)cc3Cl)c(=O)c12,inconclusive: -13.7% [at 46 µM],
CCN(CC)S(=O)(=O)c1cccc(C(=O)c2c(C)cc3ccccn23)c1,,"inconclusive: 11.2 µM [fluorescent, partial curve]"
CCn1ncc(Br)c1C(=O)Nc1cc(C)cc(C)c1,inconclusive: -0.067%,
Cc1ccc(-n2ncc(C(=O)Nc3ccc4c(c3)OCCO4)c2C2CCN(C(=O)OC(C)(C)C)CC2)cc1C,inactive,
Cc1ccc(CNC(=O)Cc2ccc(-c3ccccc3)cc2)cc1,inconclusive: -13.3%,
Cc1ccc(NC(=O)COC(=O)CN2C(=O)c3ccccc3C2=O)cc1S(=O)(=O)N(C)C,inconclusive: 28.7% [at 9.22 µM],
CC1CCN(C(=O)c2cccc(S(=O)(=O)N3CCCCC3)c2)CC1,inconclusive: -0.861%,
Cc1ccc(NC(=O)CSc2nnc(-c3cccnc3)s2)cc1,inactive,
CC1(C)CC(NC(=O)COc2ccccc2Cl)CC(C)(C)N1,inconclusive: 7.77% [at 46 µM],
CCOc1ccccc1C(N)=O,inconclusive: -4.78%,
CC(C)N(Cc1ccccc1)C(=O)c1cc2ccc3cccnc3c2[nH]1,,"inconclusive: 12.6 µM [inhibitor, partial curve]"
C/C(=N\NC(=S)NCc1ccccc1)C1CCCCC1,inconclusive: 40.7% [at 46 µM],
N=c1sc2ccccc2n1-c1ccccc1,inactive,
COc1cc(OC)cc(C(=O)NCCc2csc(-c3cccc(C)c3)n2)c1,inactive,

# Compounds shown so far containing a tert-butyl group, in the order listed:
SMILES,"ratio change, negative = inhibition",Potency
Cc1ccc(C(=O)Nc2nnc(-c3ccc(C(C)(C)C)cc3)s2)cc1,inactive,
Cc1ccc(-n2ncc(C(=O)Nc3ccc4c(c3)OCCO4)c2C2CCN(C(=O)OC(C)(C)C)CC2)cc1C,inactive,

# (further entries)

SMILES,"ratio change, negative = inhibition",Potency
C=CCc1cc(C(=O)N2CCCCC2)ccc1O,,"inconclusive: 35.5 µM [falling, single point]"
C=C(C)CN1CCN(S(=O)(=O)c2ccc(C)c(N(C)S(=O)(=O)c3ccc(C)cc3)c2C)CC1,inconclusive: -48.3%,
O=C(Cn1nnc(-c2ccccc2F)n1)Nc1ccc(S(=O)(=O)NC2CCCC2)cc1,inactive,
COC(=O)c1cc(N2CCN(C)CC2)nc2ccccc12,inconclusive: -5.09% [at 46 µM],
O=C(C1CC1)N1N=C2CCCCC2C1(O)C(F)(F)F (stereo unspecified),inconclusive: -10.1% [at 1.84 µM],
CCCCCNc1nc(-c2ccccc2)cs1,inactive,
COC(=O)CCC(=O)OC1(C)C(=O)C=C2C=C(C3CC3)N(c3ccc(CO)cc3)C=C2C1=O (stereo unspecified),inconclusive: 5.01% [at 9.22 µM],
CCC(CC)C(=O)Nc1nnc(SCc2cc(=O)c3ccccc3[nH]2)s1,inconclusive: -13% [at 46 µM],
NC(=O)c1ccsc1NC(=O)c1ccc(S(=O)(=O)N2CCCC2)cc1,inconclusive: -2.57% [at 9.22 µM],
CCCn1c(CN2CCN(C(=O)c3ccco3)CC2)nc2c1c(=O)n(C)c(=O)n2C,inactive,
CCc1cccc(CC)c1NC(=S)NCc1ccc2[nH]c(C)cc2c1,,"inconclusive: 35.5 µM [falling, single point]"
O=C(/C=C/c1ccccc1)NCc1cccnc1,inconclusive: 1.35% [at 46 µM],
CCn1c2c(c(=O)n3ncc(C(=O)Nc4ccc(C(=O)OC)cc4)c13)CN(Cc1ccc(OC)cc1)CC2,inconclusive: 2.29% [at 46 µM],
O=C(NCCc1ccc(Cl)cc1)C(=O)NCC(c1ccco1)S(=O)(=O)c1ccccc1 (stereo unspecified),inconclusive: -8.35% [at 46 µM],
FC(F)(F)c1ccc(N2CCN(Cc3ccc4c(c3)OCO4)CC2)nc1,,"inconclusive: 35.5 µM [falling, single point]"
CCn1c(CN2CCCCC2)nc2cc(NC(=O)COc3ccccc3C(C)(C)C)ccc21,inactive,
O=C(Nc1cc([N+](=O)[O-])ccc1F)C1CC1,inactive,
Clc1nc(NCc2ccco2)nc(N2CCCCC2)n1,inconclusive: -14.3% [at 9.22 µM],
O=c1c(-c2ccc(F)cc2)coc2cc(O)ccc12,inconclusive: 1.53%,
CCOc1ccc(CC(=O)NCCS(=O)(=O)N2CCN(c3ccc(OC)cc3)CC2)cc1,inactive,
Cc1cc(C)cc(NC(=O)c2sc3nc[nH]c(=O)c3c2C)c1,inconclusive: -18.4% [at 46 µM],
CCCCCCCCCCCCCCCC[n+]1cccc2ccccc21,,"inconclusive: 35.5 µM [falling, single point]"
CCCn1c2ccc(F)cc2c2nnc(NN)nc21,inconclusive: -5.04% [at 46 µM],
O=C(NCCc1c[nH]c2ccccc12)C(F)(F)F,inactive,
Cc1cccc(C(=O)N2CCN(c3ccc(C(F)(F)F)cn3)CC2)c1C,,"inconclusive: 35.5 µM [fluorescent, single point]"
